Measured values published in PubChem BioAssay AID590 (National Center for Advancing Translational Sciences (NCATS), 2007).
Out of some 59,000 compounds screened, about 6,500 (11%) were called active. Inconclusive means that the source gave no clear call. Such entries were picked first, then a sample of the others. No stated cut-off is given here; in the data, active means max dye-equivalent concentration above about 10 nM; inconclusive means mostly about 1.1 nM to 9.6 nM; inactive means weaker than that.

assay: qHTS Assay for Spectroscopic Profiling in A350 Spectral Region; settings: Compound autofluorescence, 340/450 nm, Alexa 350 dye-equivalents; active compounds read high

Structure (SMILES) | max dye-equivalent concentration
CS(C)(=O)=NS(=O)(=O)c1ccc(Cl)cc1 | inconclusive: 2.1 nM
Cc1ccc2c(c1)c(C)cc(=O)n2CCC(=O)O | inconclusive: 1.1 nM
O=c1c(CCc2ccccc2)nc2cnc(N3CCOCC3)nc2n1C[C@H]1CCCO1 | active: 30 nM
CC(C)(C)c1ccc(-c2nnc(SCCC#N)n2C2CCCC2)cc1 | inconclusive: 1.1 nM
CCOC(=O)C1CCN(C(=O)c2c(-c3c(F)cccc3Cl)noc2C)CC1 | inconclusive: 1.9 nM
Cc1cccc(OC(C)C(=O)N(Cc2cccs2)C2CCS(=O)(=O)C2)c1C (stereo not drawn) | inconclusive: 3.3 nM
Cc1c(C(=O)Nc2ccc(-n3cnnn3)cc2)oc2ccccc12 | inconclusive: 9.4 nM
Cn1c(=O)oc2cc(S(=O)(=O)NCCC(=O)N3CCc4ccccc43)ccc21 | active: 30 nM
CCCCn1c(SCc2cc(=O)n3ccsc3n2)nc2cc(C(=O)OC)ccc2c1=O | inconclusive: 2.3 nM
N#Cc1nc(COc2ccc(Br)cc2)oc1NCCCn1ccnc1 | inactive
COC(=O)c1[nH]c2ccc(C)cc2c1NC(=O)Nc1ccccc1OC | inconclusive: 7.2 nM
CC(C)c1ccc2oc(=O)cc(CN3CCN(c4ccccc4)CC3)c2c1 | inconclusive: 1.9 nM
O=C(Cn1ccc2ccccc2c1=O)NCCC(=O)Nc1cccnc1 | inactive
Cc1ccccc1CS(=O)(=O)CCC(=O)NCCCN1CCOCC1 | inconclusive: 2.9 nM
CCOC(=O)C1(CC)NC(c2ccc(N(C)C)cc2)C2C(=O)N(C)C(=O)C21 (stereo not drawn) | inconclusive: 2.1 nM
Cc1cc(=O)oc2c(C)c(OCC(=O)N(C)C)ccc12 | inconclusive: 2.4 nM
COCCn1c(=O)c(-c2ccccc2)nc2cnc(N3CCN(C)CC3)nc21 | inconclusive: 1.7 nM
CCOc1ccc(-c2nn3c(-c4ccccc4)nnc3s2)cc1 | inactive
Cc1ccccc1OCC(=O)N(Cc1cccs1)C1CCS(=O)(=O)C1 (stereo not drawn) | inconclusive: 1.4 nM
O=c1[nH]c(CSc2nnc(COc3ccccc3)n2-c2ccccc2)nc2ccccc12 | inconclusive: 1.3 nM
C=CCOc1cccc(C2C(C(=O)c3ccc(C)o3)=C(O)C(=O)N2CCN(C)C)c1 (stereo not drawn) | inconclusive: 1.9 nM
Cc1ccc(NC(=O)c2ccc(F)c(S(=O)(=O)N3CCOCC3)c2)cc1F | inconclusive: 1.1 nM

Structure (SMILES) | max dye-equivalent concentration
COc1ccc(OC)c(C(c2nnnn2CCc2ccccc2)N2CCC(C(N)=O)CC2)c1 (stereo not drawn) | inconclusive: 1.1 nM
COc1ccc(OC)c(-c2cc(C(=O)Nc3c(C)nn(Cc4ccc(Cl)cc4)c3C)no2)c1 | active: 19 nM
O=C(Cc1ccc(-n2c(=O)[nH]c3ccccc3c2=O)cc1)N1CCN(c2ccccc2)CC1 | inconclusive: 1.3 nM
COCCn1c(=O)c(-c2cccc(Cl)c2)nc2cncnc21 | inconclusive: 3.6 nM
CC1CC(C)CN(c2ncc3c(n2)CC(c2ccc(Cl)cc2)CC3=O)C1 (stereo not drawn) | inconclusive: 2.6 nM
Cc1nc2c(F)c(F)c(C(F)(F)F)c(F)c2[nH]1 | inconclusive: 2.7 nM
CCc1ccccc1N(CC(=O)N1CCN(c2ccccc2F)CC1)S(C)(=O)=O | inconclusive: 3.2 nM
CC1(C)CC(=O)c2c(-c3cccs3)n[nH]c2C1 | inconclusive: 2.4 nM
O=C(O)c1ccccc1NC(=O)C1CCCO1 (stereo not drawn) | inactive
COc1ncc2nc(-c3ccc(Cl)cc3)c(=O)n(Cc3cccs3)c2n1 | active: 19 nM
CCOC(=O)N1CCN(C(=O)c2ccc3c(=O)n(Cc4ccc(OC)cc4)c(=S)[nH]c3c2)CC1 | inactive
O=c1[nH]c(C(F)(F)F)nc2c1nnn2Cc1ccccc1F | inconclusive: 8.9 nM
CCN(CC)CCCNc1cc2n(c(=O)n1)CCc1cc(OC)c(OC)cc1-2 | active: 130 nM
O=C(NC1CCCCC1)c1sc(=S)n2c1[nH]c(=O)c1ccccc12 | inactive
O=C(COc1ccc(S(=O)(=O)N2CCCC2)cc1Cl)N1CCN(c2ccccc2)CC1 | inconclusive: 5.4 nM
CC(C)OCCCNC(=O)C1CCN(S(=O)(=O)N2CCCCC2)CC1 | inconclusive: 2.4 nM
CC(C)OC(=O)c1c2nc3ccccc3nc2n2c1[nH]c(=O)c1ccccc12 | inconclusive: 8.8 nM
CC(=O)Nc1ccc(C2NC(=O)c3ccccc3O2)cc1 (stereo not drawn) | inconclusive: 1.7 nM
CC(C)(C)OC(=O)N1CC(O)CC1C(=O)OCC(=O)c1ccc(Cl)cc1 (stereo not drawn) | inconclusive: 4.3 nM
CC(NC(=O)CCNS(=O)(=O)c1ccc2c(c1)c(=O)n(C)c(=O)n2C)c1ccccc1 (stereo not drawn) | inconclusive: 5.8 nM
Cc1cccc(N2C(=O)C3C4C=CC(C4)C3C2=O)c1 (stereo not drawn) | inconclusive: 4 nM
c1cncc(Nc2nc(-c3ccncc3)cs2)c1 | inconclusive: 5 nM

Structure (SMILES) | max dye-equivalent concentration
CCCOc1cc(C)c(S(=O)(=O)n2ccc(C)n2)cc1C | inconclusive: 1.1 nM
Cc1cc2ccc(OC(=O)c3ccc(N=C(N)N)cc3)cc2oc1=O | active: 770 nM
Cc1ccc2nc3c(cc(C#N)c(=O)n3-c3nccs3)c(=O)n2c1 | active: 14000 nM
Fc1ccc2nc3[nH]c4ccccc4c3nc2c1 | inconclusive: 9.9 nM
CC(C)Cn1c(SCC(=O)NC2CCCc3ccccc32)nc(O)cc1=O (stereo not drawn) | inconclusive: 1.1 nM
O=S(=O)(c1cccc(-c2cn3cccnc3n2)c1)N1CCCCCC1 | active: 440 nM
C/C=C/C=[N+](\[O-])C(C)/C(=N/O)c1ccc(F)cc1 (stereo not drawn) | inconclusive: 2.9 nM
NS(=O)(=O)c1cc2c(cc1Cl)N[C@@H](CC1CCCC1)NS2(=O)=O | inconclusive: 4.6 nM
CCc1nnc(NC(=O)C2CC(=O)N(CCc3ccccc3)C2)s1 (stereo not drawn) | inactive
CCn1c(SCC(=O)N2CCN(c3ccc(F)cc3)CC2)nc2ccccc2c1=O | inconclusive: 1.7 nM
CCN(CC)CCN1C(=O)c2oc3ccccc3c(=O)c2C1c1ccc(C)cc1 (stereo not drawn) | inconclusive: 4.2 nM
CCn1cc(-c2cc(C(F)(F)F)n3nc(C(=O)O)cc3n2)c(C)n1 | active: 63 nM
CCn1nnc(NC(=O)c2ccc(-c3ccc(Cl)cc3)o2)n1 | inconclusive: 3.1 nM
CN1CCN(c2ccc(NC(=O)COc3ccc(Cl)cc3Cl)cc2)CC1 | inconclusive: 5.8 nM
O=C(c1ccco1)N1CCC2(CCCN(c3ccccn3)C2)CC1 | inactive
COc1ccccc1C1=NOC(Cn2c(=O)c3c(ncn3C)n(C)c2=O)C1 (stereo not drawn) | inconclusive: 1.1 nM
C/C(=C(\C#N)C(=O)NCCN1CCOCC1)N(C)C | inconclusive: 2.5 nM
C=CCSc1ncccc1C(=O)O | inconclusive: 3.4 nM
Cc1c(OCC(=O)OC(C)(C)C)ccc2c3c(c(=O)oc12)CCC3 | active: 16 nM
O=C(COC(=O)C1c2ccccc2Oc2ccccc21)NC1CCS(=O)(=O)C1 (stereo not drawn) | inconclusive: 2 nM
CC(=O)C1=C(C)Nc2ncnn2C1c1ccc(Cl)cc1Cl (stereo not drawn) | inactive
CC(=O)Nc1ccc(S(=O)(=O)N2CCN(CC(=O)NC3CCCC3)CC2)cc1 | inconclusive: 2.1 nM

Part of the list above in order of SMILES length, ascending.
Structure (SMILES) | max dye-equivalent concentration
COc1ccccc1C1=NOC(Cn2c(=O)c3c(ncn3C)n(C)c2=O)C1 (stereo not drawn) | inconclusive: 1.1 nM
CCN(CC)CCN1C(=O)c2oc3ccccc3c(=O)c2C1c1ccc(C)cc1 (stereo not drawn) | inconclusive: 4.2 nM
CC(=O)Nc1ccc(S(=O)(=O)N2CCN(CC(=O)NC3CCCC3)CC2)cc1 | inconclusive: 2.1 nM

The list goes on.

Structure (SMILES) | max dye-equivalent concentration
Cc1cc(C(C)(C)C)cc(CNC2CCCCC2)c1O | inactive
COc1ccc(NC(=O)C2CCN(C(=O)NC3CCCCC3)CC2)c(OC)c1 | inactive
CCOC(=O)C1C2C=CC3(CN(C4CCCC4)C(=O)C13)O2 (stereo not drawn) | inactive
COC(=O)c1ccc(-c2nc3ccc(C)cc3o2)cc1 | active: 36 nM
COc1ccc(-c2nc(C#N)c(NCc3ccc(F)cc3)o2)cc1OC | inconclusive: 3.2 nM
CN(C)c1ccc(C2N([C@H](C#N)c3ccc(N(C)C)cc3)CCCN2[C@@H](C#N)c2ccc(N(C)C)cc2)cc1 (stereo partly drawn) | inconclusive: 2.6 nM
CCOc1ccc(-c2cc3nc(C4CCN(C(=O)OC(C)(C)C)CC4)c(C(=O)O)cn3n2)cc1 | inconclusive: 8.1 nM
Cc1nnc(SCc2ccccc2C#N)n1-c1ccccc1 | active: 160 nM
O=c1c2cnn(-c3ccccc3)c2nnn1Cc1ccccn1 | inactive
CCOc1ccc(-c2noc(CCC(N)=O)n2)cc1OCC | inconclusive: 1.4 nM
COC(=O)c1sc(NC(=O)c2ccc(Cn3cc(Cl)cn3)o2)c(C#N)c1C | inconclusive: 6.4 nM
CCCCOc1ccc(OCCNS(=O)(=O)N(C)C)cc1 | inactive
C=CCOn1c(=O)c(=O)n(OCc2ccccc2)c2ccccc21 | inconclusive: 1.1 nM
CCn1c2ccccc2c2nnc(SCC(=O)NCCOC)nc21 | inactive
Cc1csc(=Nc2ccc(S(=O)(=O)N3CCOCC3)cc2)n1Cc1ccco1 | inconclusive: 2.9 nM
Cn1cc(-c2nc3cnc(Oc4ccccc4)nc3n(CCC#N)c2=O)c2ccccc21 | inconclusive: 1.6 nM
COCC(=O)Nc1nc2n(n1)C(c1ccc(Cl)cc1)CC(c1ccc(OC)cc1)N2 (stereo not drawn) | inconclusive: 7.4 nM
COc1cccc(NC(=O)CSc2nnnn2C(C)C)c1 | inconclusive: 1.1 nM
O=C(Nc1ccc2nc(-c3ccc(Br)o3)[nH]c2c1)c1ccco1 | active: 39 nM
CCOC(=O)C1CCN(CC(=O)c2c(C)[nH]c3cc(C)ccc23)CC1 | inconclusive: 1.5 nM
CCOC(=O)C1=C(C)NC(=O)NC1c1ccoc1 (stereo not drawn) | inconclusive: 2.2 nM
Cc1noc(C)c1C(=O)N1CCC2(CCCN(c3ncccn3)C2)CC1 | inactive
